# Assay results taken from the supplement of paper PMC8728848.
# Some of the results follow.
# B1: CBP21 (Serratia marcescens), O83009 (protein)
# chain: MNKTSRTLLSLGLLSAAMFGVSQQANAHGYVESPASRAYQCKLQLNTQCGSVQAEPQSVEGLKGFPQAGPADGHIASADKSTFFELDQQTPTRWNKLNLKTGPNSFTWKLTARHSTTSWRYFITKPNWDASQPLTRASFDLTPFCQFNDGGAIPAAQVTHQCNIPADRSGSHVILAVWDIADTANAFYQAIDVNLSK
# Columns and labels:
# Test in all cases: glycan array binding signal (z-score within array); higher = stronger binding
# Conditions in all cases: glycan notation: IUPAC condensed, linker removed; mutation: Y54A
# [1] = target: Gal(b1-4)GlcNAc(b1-3)Gal(b1-4)GlcNAc(b1-3)Gal(b1-4)GlcNAc(b1-3)Gal(b1-4)GlcNAc(b1-2)Man(a1-3)[Gal(b1-4)GlcNAc(b1-3)Gal(b1-4)GlcNAc(b1-3)Gal(b1-4)GlcNAc(b1-3)Gal(b1-4)GlcNAc(b1-2)Man(a1-6)]Man(b1-4)GlcNAc(b1-4)GlcNAc
# Outline: (§1)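 From the Consortium for Functional Glycomics database, 3228 arrays were curated, keeping only those whose protein sequence was available. Binding is given as a within-array Z-score averaged across arrays sharing a protein sequence and across linkers. Negative Z-scores can be read as non-binding.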
# [2] = target: Gal(b1-4)GlcNAc(b1-3)Gal(b1-4)GlcNAc(b1-3)Gal(b1-4)GlcNAc(b1-3)Gal(b1-4)GlcNAc(b1-2)Man(a1-3)[Gal(b1-4)GlcNAc(b1-3)Gal(b1-4)GlcNAc(b1-3)Gal(b1-4)GlcNAc(b1-3)Gal(b1-4)GlcNAc(b1-2)Man(a1-6)]Man(b1-4)GlcNAc(b1-4)[Fuc(a1-6)]GlcNAc
# Outline: as §1
# [3] = target: Gal(b1-4)GlcNAc(b1-3)Gal(b1-4)GlcNAc(b1-3)Gal(b1-4)GlcNAc(b1-3)Gal(b1-4)GlcNAc(b1-2)[Gal(b1-4)GlcNAc(b1-3)Gal(b1-4)GlcNAc(b1-3)Gal(b1-4)GlcNAc(b1-3)Gal(b1-4)GlcNAc(b1-6)]Man(a1-6)[Gal(b1-4)GlcNAc(b1-3)Gal(b1-4)GlcNAc(b1-3)Gal(b1-4)GlcNAc(b1-3)Gal(b1-4)GlcNAc(b1-2)Man(a1-3)]Man(b1-4)GlcNAc(b1-4)[Fuc(a1-6)]GlcNAc
# Outline: as §1
# [4] = target: Gal(b1-4)GlcNAc(b1-3)Gal(b1-4)GlcNAc(b1-3)Gal(b1-4)GlcNAc(b1-3)Gal(b1-4)GlcNAc(b1-3)Gal(b1-4)GlcNAc(b1-2)Man(a1-3)[Gal(b1-4)GlcNAc(b1-3)Gal(b1-4)GlcNAc(b1-3)Gal(b1-4)GlcNAc(b1-3)Gal(b1-4)GlcNAc(b1-3)Gal(b1-4)GlcNAc(b1-2)Man(a1-6)]Man(b1-4)GlcNAc(b1-4)GlcNAc
# Outline: as §1
# [5] = target: Gal(b1-4)GlcNAc(b1-3)Gal(b1-4)GlcNAc(b1-3)Gal(b1-4)GlcNAc(b1-3)Gal(b1-4)GlcNAc(b1-3)Gal(b1-4)GlcNAc(b1-2)Man(a1-3)[Gal(b1-4)GlcNAc(b1-3)Gal(b1-4)GlcNAc(b1-3)Gal(b1-4)GlcNAc(b1-3)Gal(b1-4)GlcNAc(b1-3)Gal(b1-4)GlcNAc(b1-2)Man(a1-6)]Man(b1-4)GlcNAc(b1-4)[Fuc(a1-6)]GlcNAc
# Outline: as §1
# [6] = target: Gal(b1-4)GlcNAc(b1-3)Gal(b1-4)GlcNAc(b1-3)Gal(b1-4)GlcNAc(b1-3)Gal(b1-4)GlcNAc(b1-3)Gal(b1-4)GlcNAc(b1-2)[Gal(b1-4)GlcNAc(b1-3)Gal(b1-4)GlcNAc(b1-3)Gal(b1-4)GlcNAc(b1-3)Gal(b1-4)GlcNAc(b1-3)Gal(b1-4)GlcNAc(b1-6)]Man(a1-6)[Gal(b1-4)GlcNAc(b1-3)Gal(b1-4)GlcNAc(b1-3)Gal(b1-4)GlcNAc(b1-3)Gal(b1-4)GlcNAc(b1-3)Gal(b1-4)GlcNAc(b1-2)Man(a1-3)]Man(b1-4)GlcNAc(b1-4)[Fuc(a1-6)]GlcNAc
# Outline: as §1
# [7] = target: Gal(b1-4)GlcNAc(b1-3)Gal(b1-4)GlcNAc(b1-3)Gal(b1-4)GlcNAc(b1-3)Gal(b1-4)GlcNAc(b1-3)Gal(b1-4)GlcNAc(b1-3)Gal(b1-4)GlcNAc(b1-2)Man(a1-3)[Gal(b1-4)GlcNAc(b1-3)Gal(b1-4)GlcNAc(b1-3)Gal(b1-4)GlcNAc(b1-3)Gal(b1-4)GlcNAc(b1-3)Gal(b1-4)GlcNAc(b1-3)Gal(b1-4)GlcNAc(b1-2)Man(a1-6)]Man(b1-4)GlcNAc(b1-4)GlcNAc
# Outline: as §1
# [8] = target: Gal(b1-4)GlcNAc(b1-3)Gal(b1-4)GlcNAc(b1-3)GalNAc
# Outline: as §1
# [9] = target: Gal(b1-4)GlcNAc(b1-3)Gal(b1-4)GlcNAc(b1-3)[Gal(b1-4)GlcNAc(b1-3)Gal(b1-4)GlcNAc(b1-6)]GalNAc
# Outline: as §1
# [10] = target: Gal(b1-4)GlcNAc(b1-3)Gal(b1-4)GlcNAc(b1-6)[Gal(b1-3)]GalNAc
# Outline: as §1
# [11] = target: Gal(b1-4)GlcNAc(b1-3)Gal(b1-4)[Fuc(a1-3)]GlcNAc(b1-3)Gal(b1-4)[Fuc(a1-3)]GlcNAc
# Outline: as §1
# [12] = target: Gal(b1-4)GlcNAc(b1-3)GalNAc
# Outline: as §1
# [13] = target: Gal(b1-4)GlcNAc(b1-3)[Fuc(a1-3)GlcNAc(b1-6)]Gal(b1-4)Glc
# Outline: as §1
# [14] = target: Gal(b1-4)GlcNAc(b1-3)[Gal(b1-4)GlcNAc(b1-6)]Gal(b1-4)GlcNAc
# Outline: as §1
# [15] = target: Gal(b1-4)GlcNAc(b1-3)[GlcNAc(b1-6)]Gal(b1-4)GlcNAc
# Outline: as §1
# [16] = target: Gal(b1-4)GlcNAc(b1-6)Gal(b1-4)GlcNAc
# Outline: as §1
# [17] = target: Gal(b1-4)GlcNAc(b1-6)GalNAc
# Outline: as §1
# [18] = target: Gal(b1-4)GlcNAc(b1-6)[Gal(b1-3)]GalNAc
# Outline: as §1
# [19] = target: Gal(b1-4)GlcNAc(b1-6)[Gal(b1-4)GlcNAc(b1-3)]GalNAc
# Outline: as §1
# Gal(b1-4)GlcNAc6P = target: Gal(b1-4)GlcNAc6P
# Outline: as §1
# Gal(b1-6)Gal = target: Gal(b1-6)Gal
# Outline: as §1
# Gal3S(b1-3)GalNAc = target: Gal3S(b1-3)GalNAc
# Outline: as §1
# Gal3S(b1-3)GlcNAc = target: Gal3S(b1-3)GlcNAc
# Outline: as §1
binder,measurement,setting,value
B1,glycan array binding signal (z-score),[1],0.181
same,glycan array binding signal (z-score),[2],-0.337
same,glycan array binding signal (z-score),[3],1
same,glycan array binding signal (z-score),[4],-0.068
same,glycan array binding signal (z-score),[5],5.09
same,glycan array binding signal (z-score),[6],1.3
same,glycan array binding signal (z-score),[7],-0.154
same,glycan array binding signal (z-score),[8],0.033
same,glycan array binding signal (z-score),[9],-0.31
same,glycan array binding signal (z-score),[10],-0.269
same,glycan array binding signal (z-score),[11],-0.165
same,glycan array binding signal (z-score),[12],-0.377
same,glycan array binding signal (z-score),[13],-0.538
same,glycan array binding signal (z-score),[14],-0.65
same,glycan array binding signal (z-score),[15],1.84
same,glycan array binding signal (z-score),[16],1.21
same,glycan array binding signal (z-score),[17],-0.908
same,glycan array binding signal (z-score),[18],-0.512
same,glycan array binding signal (z-score),[19],2.3
same,glycan array binding signal (z-score),Gal(b1-4)GlcNAc6P,-0.362
same,glycan array binding signal (z-score),Gal(b1-6)Gal,-0.809
same,glycan array binding signal (z-score),Gal3S(b1-3)GalNAc,0.536
same,glycan array binding signal (z-score),Gal3S(b1-3)GlcNAc,0.703

# Two consecutive records from above, for reference:
binder,measurement,setting,value
B1,glycan array binding signal (z-score),[14],-0.65
same,glycan array binding signal (z-score),[15],1.84
